Results on one molecule are retold here after article PMC8834003.

No constants are given. Whether binding was seen depends on the method and setting.

The target of this assay is T1, mouse sperm-associated antigen 6-like (SPAG6L), the evolved gene on chromosome 16 (mouse) (UniProt Q9JLI7).
T1 sequence: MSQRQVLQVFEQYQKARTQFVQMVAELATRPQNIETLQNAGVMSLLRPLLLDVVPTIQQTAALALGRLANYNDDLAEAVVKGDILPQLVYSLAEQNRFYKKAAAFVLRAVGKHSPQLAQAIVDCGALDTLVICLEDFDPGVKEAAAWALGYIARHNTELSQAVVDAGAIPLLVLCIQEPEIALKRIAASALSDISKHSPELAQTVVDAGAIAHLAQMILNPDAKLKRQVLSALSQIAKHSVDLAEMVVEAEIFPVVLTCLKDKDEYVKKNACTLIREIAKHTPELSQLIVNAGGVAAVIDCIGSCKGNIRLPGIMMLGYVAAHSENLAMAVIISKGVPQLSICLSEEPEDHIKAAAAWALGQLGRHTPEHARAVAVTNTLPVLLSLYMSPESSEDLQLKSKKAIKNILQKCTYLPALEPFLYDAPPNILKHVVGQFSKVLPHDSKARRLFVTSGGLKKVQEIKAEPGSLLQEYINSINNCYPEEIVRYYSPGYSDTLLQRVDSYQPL
The experiment in a line: two-hybrid; direct yeast two-hybrid assay; indicated pGBK-T7 and pGAD-T7 plasmids transformed into AH109 yeast; growth on non-selection medium (SD-2) and selection medium (SD-3).

B1: mouse Ccdc103 (protein, UniProt Q9D9P2 1-237)
chain: MEKNDVINFKALEKELQAALAADEKYKRENAAKLRAVEQRVPSYEEFRGIVLASHLKPLEQKDKMGGKRFVPWNCHTTRERTSQDVVTEIPQEKSPFQPTTSAEFYRDWRRHLRSGPERYQALLQLGGPKLGHLFQMDVGFGLLGELLVALAEHARLSDRTAVLGILHSLANTGRFNLNLSLLSHAERESCQRLFQKLQAMSTTRPMQEGLTVEEPSAGLQGEEGLLQELLELYGVH
B1: the binding entry is recorded as “no binding”.
